No constants are given. Whether binding was seen depends on the method and setting. In cells and extracts the contact can be indirect. A yes stands for co-enrichment or nearness to the bait. Other partners may have been found. Tags and fused reporters may be left off the sequences shown.
T1: GST-tagged EML1 N-ter (EML1 N-terminal domain, amino acids 1-174) (UniProt O00423)
T1 sequence: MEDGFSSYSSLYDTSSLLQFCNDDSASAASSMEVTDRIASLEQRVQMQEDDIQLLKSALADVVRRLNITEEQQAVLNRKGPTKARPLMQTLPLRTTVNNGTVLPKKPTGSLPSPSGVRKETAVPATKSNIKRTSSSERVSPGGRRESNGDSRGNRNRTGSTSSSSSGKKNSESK

Protein sequences, listed by entry. Tags and fused reporters are not part of them.
UniProt Q07832: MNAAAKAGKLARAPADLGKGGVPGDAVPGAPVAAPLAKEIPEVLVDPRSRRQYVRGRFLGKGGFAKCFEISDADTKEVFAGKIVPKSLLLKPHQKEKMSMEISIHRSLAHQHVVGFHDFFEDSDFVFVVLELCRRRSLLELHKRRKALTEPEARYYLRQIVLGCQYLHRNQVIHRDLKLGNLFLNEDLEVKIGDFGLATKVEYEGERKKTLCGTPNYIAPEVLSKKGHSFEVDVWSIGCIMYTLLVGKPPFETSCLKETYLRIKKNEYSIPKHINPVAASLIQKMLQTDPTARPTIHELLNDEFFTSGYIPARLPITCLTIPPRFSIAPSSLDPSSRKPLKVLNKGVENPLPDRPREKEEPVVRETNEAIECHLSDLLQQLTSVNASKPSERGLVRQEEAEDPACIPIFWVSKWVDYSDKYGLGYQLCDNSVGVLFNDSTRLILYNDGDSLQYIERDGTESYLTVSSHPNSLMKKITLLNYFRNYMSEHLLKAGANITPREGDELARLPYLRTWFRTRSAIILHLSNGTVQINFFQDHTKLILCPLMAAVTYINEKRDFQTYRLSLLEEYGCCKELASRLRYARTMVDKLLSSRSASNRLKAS
UniProt A2APB8: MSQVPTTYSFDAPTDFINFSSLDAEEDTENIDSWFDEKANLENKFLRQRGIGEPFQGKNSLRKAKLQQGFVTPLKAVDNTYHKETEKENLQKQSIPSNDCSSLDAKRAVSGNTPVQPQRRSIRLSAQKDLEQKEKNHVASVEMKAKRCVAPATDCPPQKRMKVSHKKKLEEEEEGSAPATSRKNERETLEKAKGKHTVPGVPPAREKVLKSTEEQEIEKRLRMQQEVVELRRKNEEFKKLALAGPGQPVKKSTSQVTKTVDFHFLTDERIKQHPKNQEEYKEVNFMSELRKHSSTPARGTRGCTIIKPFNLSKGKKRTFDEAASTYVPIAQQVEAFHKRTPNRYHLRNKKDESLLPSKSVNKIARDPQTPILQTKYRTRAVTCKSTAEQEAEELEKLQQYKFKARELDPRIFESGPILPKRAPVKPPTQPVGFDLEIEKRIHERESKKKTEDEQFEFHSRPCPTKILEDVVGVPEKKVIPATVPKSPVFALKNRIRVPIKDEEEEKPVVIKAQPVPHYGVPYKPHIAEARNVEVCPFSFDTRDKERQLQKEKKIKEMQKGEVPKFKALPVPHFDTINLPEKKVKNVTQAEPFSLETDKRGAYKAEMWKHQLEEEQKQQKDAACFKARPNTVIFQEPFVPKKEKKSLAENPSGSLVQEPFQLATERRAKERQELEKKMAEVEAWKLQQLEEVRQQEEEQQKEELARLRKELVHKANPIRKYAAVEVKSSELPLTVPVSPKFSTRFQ
UniProt Q80TV8: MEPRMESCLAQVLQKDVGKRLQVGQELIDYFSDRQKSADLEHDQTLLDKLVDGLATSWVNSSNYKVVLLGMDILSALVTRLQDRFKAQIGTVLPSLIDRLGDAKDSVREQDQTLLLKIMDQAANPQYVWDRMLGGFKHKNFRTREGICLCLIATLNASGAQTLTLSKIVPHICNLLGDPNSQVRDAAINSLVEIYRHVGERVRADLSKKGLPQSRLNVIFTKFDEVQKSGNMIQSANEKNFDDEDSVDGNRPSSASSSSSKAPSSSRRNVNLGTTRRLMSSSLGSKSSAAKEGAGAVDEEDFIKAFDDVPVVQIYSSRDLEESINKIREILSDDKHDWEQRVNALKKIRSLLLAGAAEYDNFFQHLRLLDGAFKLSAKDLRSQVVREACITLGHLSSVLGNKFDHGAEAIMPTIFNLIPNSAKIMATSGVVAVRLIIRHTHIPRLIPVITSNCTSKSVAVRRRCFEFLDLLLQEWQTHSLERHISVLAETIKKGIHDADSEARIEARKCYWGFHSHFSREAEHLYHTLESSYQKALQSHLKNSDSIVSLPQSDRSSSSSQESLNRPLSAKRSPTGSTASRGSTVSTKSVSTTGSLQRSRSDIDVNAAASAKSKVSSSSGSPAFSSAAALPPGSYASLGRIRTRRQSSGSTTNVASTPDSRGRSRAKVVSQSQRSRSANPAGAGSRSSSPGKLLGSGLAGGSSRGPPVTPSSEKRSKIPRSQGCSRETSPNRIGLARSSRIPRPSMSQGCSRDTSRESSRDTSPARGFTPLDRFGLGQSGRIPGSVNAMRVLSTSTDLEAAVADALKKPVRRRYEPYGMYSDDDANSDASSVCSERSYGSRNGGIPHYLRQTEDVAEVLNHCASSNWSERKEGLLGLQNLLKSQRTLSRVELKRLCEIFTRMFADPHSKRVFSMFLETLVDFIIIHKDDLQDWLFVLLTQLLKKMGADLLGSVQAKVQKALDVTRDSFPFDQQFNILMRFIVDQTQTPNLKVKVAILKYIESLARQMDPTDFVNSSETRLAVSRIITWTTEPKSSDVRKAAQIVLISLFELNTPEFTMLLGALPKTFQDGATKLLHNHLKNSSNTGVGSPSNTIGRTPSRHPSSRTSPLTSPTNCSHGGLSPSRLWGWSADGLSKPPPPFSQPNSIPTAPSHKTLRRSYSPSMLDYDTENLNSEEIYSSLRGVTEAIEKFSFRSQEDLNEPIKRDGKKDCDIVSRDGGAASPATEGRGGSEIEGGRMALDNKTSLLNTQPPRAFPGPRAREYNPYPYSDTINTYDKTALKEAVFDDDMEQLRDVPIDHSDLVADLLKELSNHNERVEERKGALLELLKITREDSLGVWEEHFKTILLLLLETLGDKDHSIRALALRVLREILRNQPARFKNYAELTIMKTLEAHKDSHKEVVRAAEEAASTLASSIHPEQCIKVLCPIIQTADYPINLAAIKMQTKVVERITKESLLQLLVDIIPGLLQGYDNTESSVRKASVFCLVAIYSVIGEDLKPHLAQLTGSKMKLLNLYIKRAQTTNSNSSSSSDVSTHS
UniProt Q80WE4: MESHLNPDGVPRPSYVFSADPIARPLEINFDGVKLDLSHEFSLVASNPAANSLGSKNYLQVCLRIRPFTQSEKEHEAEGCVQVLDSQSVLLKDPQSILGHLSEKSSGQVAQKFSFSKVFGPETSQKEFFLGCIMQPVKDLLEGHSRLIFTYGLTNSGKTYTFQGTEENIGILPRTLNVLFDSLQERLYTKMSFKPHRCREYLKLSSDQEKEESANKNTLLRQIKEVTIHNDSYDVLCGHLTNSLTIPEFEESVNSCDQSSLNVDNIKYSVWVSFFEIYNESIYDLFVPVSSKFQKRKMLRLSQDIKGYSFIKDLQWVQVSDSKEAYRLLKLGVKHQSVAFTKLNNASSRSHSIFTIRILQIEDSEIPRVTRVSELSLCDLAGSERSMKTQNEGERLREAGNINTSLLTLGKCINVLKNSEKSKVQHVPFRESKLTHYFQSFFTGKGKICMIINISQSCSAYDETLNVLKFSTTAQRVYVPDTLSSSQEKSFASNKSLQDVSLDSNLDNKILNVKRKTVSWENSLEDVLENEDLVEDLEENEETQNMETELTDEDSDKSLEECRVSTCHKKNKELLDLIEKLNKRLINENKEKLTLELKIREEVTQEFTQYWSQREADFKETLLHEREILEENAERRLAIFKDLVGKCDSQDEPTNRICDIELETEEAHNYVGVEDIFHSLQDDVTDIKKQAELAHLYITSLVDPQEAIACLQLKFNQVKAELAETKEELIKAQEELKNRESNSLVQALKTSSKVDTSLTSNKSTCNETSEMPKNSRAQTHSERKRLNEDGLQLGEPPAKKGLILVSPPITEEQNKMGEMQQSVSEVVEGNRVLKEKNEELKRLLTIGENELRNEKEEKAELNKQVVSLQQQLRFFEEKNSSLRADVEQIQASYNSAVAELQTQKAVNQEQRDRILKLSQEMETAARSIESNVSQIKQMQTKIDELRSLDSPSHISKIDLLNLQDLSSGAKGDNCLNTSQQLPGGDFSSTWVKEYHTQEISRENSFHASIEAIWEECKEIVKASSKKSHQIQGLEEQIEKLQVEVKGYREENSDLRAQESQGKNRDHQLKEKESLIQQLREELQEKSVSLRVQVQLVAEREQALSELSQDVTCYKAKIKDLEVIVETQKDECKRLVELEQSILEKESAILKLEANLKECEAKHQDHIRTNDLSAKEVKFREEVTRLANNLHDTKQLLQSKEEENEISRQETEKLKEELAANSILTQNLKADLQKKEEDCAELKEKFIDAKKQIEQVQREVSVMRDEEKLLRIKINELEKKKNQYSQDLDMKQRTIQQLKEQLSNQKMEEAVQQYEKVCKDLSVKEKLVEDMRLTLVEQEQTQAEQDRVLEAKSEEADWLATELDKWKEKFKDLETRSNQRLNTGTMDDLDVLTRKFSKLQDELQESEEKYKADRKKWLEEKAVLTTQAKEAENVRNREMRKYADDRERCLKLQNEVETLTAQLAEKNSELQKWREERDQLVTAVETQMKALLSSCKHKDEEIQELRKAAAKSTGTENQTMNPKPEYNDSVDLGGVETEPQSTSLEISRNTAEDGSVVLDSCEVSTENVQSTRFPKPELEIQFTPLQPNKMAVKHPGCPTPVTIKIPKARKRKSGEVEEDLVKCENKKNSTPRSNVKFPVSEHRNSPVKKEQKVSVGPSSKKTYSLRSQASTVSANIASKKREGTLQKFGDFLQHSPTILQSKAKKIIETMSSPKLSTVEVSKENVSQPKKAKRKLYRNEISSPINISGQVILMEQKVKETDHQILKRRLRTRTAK
UniProt Q8C0N1: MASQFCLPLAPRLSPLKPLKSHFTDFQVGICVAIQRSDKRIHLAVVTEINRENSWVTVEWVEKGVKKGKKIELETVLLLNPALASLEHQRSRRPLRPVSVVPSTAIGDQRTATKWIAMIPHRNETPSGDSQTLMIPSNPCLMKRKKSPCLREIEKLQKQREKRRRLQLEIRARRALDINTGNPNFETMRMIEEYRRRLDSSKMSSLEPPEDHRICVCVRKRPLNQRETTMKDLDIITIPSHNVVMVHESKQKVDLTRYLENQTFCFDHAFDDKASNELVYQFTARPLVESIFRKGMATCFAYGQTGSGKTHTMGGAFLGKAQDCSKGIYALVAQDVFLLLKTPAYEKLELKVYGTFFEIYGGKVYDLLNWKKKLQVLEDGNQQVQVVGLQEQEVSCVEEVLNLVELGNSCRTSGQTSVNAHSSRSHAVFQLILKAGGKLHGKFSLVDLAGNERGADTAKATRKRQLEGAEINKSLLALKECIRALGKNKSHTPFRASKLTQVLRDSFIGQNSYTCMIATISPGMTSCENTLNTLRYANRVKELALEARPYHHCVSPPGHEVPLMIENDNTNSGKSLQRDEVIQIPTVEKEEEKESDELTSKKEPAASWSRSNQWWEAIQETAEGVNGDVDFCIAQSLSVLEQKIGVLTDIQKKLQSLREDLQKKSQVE
UniProt P28740: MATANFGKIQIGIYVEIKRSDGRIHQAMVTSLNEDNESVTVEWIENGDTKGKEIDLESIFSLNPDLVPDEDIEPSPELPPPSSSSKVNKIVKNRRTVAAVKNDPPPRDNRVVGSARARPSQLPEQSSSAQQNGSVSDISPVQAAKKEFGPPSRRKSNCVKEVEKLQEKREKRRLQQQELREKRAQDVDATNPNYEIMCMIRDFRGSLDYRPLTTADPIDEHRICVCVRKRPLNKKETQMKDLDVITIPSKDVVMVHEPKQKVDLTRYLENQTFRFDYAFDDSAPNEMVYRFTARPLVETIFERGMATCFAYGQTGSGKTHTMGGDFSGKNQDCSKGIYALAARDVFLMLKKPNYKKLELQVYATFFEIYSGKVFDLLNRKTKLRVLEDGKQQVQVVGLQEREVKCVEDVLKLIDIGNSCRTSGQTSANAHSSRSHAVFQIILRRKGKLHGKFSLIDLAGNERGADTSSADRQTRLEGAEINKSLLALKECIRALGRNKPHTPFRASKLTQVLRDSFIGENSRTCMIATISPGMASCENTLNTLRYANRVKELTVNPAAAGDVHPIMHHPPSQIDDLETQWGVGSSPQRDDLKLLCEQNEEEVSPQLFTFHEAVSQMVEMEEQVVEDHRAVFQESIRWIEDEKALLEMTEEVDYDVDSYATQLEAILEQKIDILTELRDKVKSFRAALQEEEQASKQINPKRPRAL

B1: KifC1 (kinesin-14) (protein, UniProt Q9QWT9 1-674)
chain: MDVQAQRPPLLEVKRNVELKAALVKSSSRVPLSASRLKRGPDQMEDALEPAKKRTRVMGAVTKVDTSRPRGPLLSTVSQTQGHTAAQKGPKKTGPRGCSAIGTVLRSQKPVPAAPAQKPGTSTAPVVVGKRAGKRPAWDLKGQLCDLNEELKRYREKTQTLELENRGLREQLREVQEQATTLGTERNTLEGELASVRSRAEQDQQRLETLSARVLELEECLGTRERLLQELQGERLQLQEERSTLSTQLEEQERRFQATEAALSSSQEEVVCLRQKTEAQVTLLAEQGDRLYGLEMERRRLHNQLQELKGNIRVFCRVRPVLEGESTPSPGFLVFPPGPAGPSDPPTGLSLSRSDDRRSTLTGAPAPTVRHDFSFDRVFPPGSKQEEVFEEIAMLVQSALDGYPVCIFAYGQTGSGKTFTMEGGPRGDPQLEGLIPRAMRHLFSVAQEMSGQGWTYSFVASYVEIYNETVRDLLATGPRKGQGGECEIRRASPGSEELTVTNARYVPVSCEKEVEALLHLAHQNRAVAHTAQNKRSSRSHSVFQLQISGEHAARGLQCGAPLNLVDLAGSERLDPGLHLGPGERDRLRETQAINSSLSTLGLVIMALSNKESHVPYRNSKLTYLLQNSLGGSAKMLMFVNISPLEENVSESLNSLRFASKVNQCVIGTAQANKK
B2: Kif22 (kinesin-10) (protein, UniProt Q3V300 1-660)
chain: MSLRAKTCPQRREMASATSGPGRCVSKGGLGRRPPLARVRVAVRLRPFMDGETEAKELPCVRAIDSCSLEVANWKKYQETLKYQFDAFYGEKSTQQEVYVGSVQPILRHLLEGQNASVLAYGPTGAGKTHTMLGSPEQPGVIPRALMDLLQLAREESAEGRPWDVSVAMSYLEIYQEKVLDLLDPASGDLVIREDCRGNILIPGLTQKPITSFSDFEQHFLPASRNRAVGATRLNQRSSRSHAVLLVKVDQRERLTPFRQREGKLYLIDLAGSEDNRRTGNQGIRLKESGAINTSLFVLGKVVDALNQGLPRIPYRDSKLTRLLQDSLGGSAHSILIANIAPERRFYQDTISALNFTARSKEVINRPFTNESLQPHALAPVKLSQKELLGPSEAKKAKGPEEESTGSPESTAAPASASQKLSLLQKLSNMDPAMLENLLSMERLLGSQGSQGTPLLNTPKRERMVLMKTVEEKNLEIERLKMKQKELEAKVLAQEAPDPREKENTPTILQPPASYSGTVAKPLKKAVVMPLQRIQKQRESSNQIQLLKKGPKRKLEPSPESEAVEKDEDYWEVQISPELLAHGRKKLLDLLNEGSARELRSLQRIGQKKAQLIVGWRELHGPFSEVEDLEQVEGISGKQVESFLKANLLSLAASQHSGPS
B3: Kif18A (kinesin-8) (protein, UniProt Q91WD7 1-886)
chain: MSGTEEDLCHRMKVVVRVRPENTKEKAVQFCKVVHVVDKHILSFDPKQEEISFFHRKKTTNFDITKRQNKDLKFVFDAVFDETSTQMEVFEHTTKPILHSFLNGYNCTVFAYGATGSGKTHTMLGSAAEPGVMYLTMLDLFKCIDEIKEEKECSTAVSYLEVYNEQIRDLLTNSGPLAVREDSQKGVVVQGLTLHQPKSSEEILQLLDNGNKNRTQHPTDVNAVSSRSHAVFQIYLRQQDKTASINQNVRIAKMSLIDLAGSERASVSGAKGSRFVEGTNINKSLLALGNVINALANTKRRNQHIPYRNSKLTRLLKDSLGGNCQTIMIAAVSPSSLFYDDTYNTLKYANRAKEIKSSLKSNVLNLNSHISQYVKICNMQKAEILMLKEKLKAYEEQKALSDRNDCAKLVHSNPEDRETERFQEILNCLFQNREGIRQEYLKLEMLLKANALKSSYHQQCHKQIEMMCSEDKVEKATCKRDHRLEKLKTNSCFLEKKKEEVSKQFDENTNWLHRVENEMRLLGQNGDIPEALNKELHCHHLHLQNKELKTQMAHMTALACLQEQQHKQTEAVLNALLPVLRKQYWKLKETGLSNAAFDSDFKDIEHLVERKKVVAWADQTNEHSNRNDLPGISLLMTFPQLEPIQSISCCTSVSDPNVLKLTPQRRTRRKIIPSPLKVQHTQKSALSESTQLNDSFSKELQPIVYTPEDCKKAQDLFPSLTRTSSQSANVMNDNSQKALCRIESPLSRTECKQGLYSTSTLCDSIRGLKNKWPEQEPLASSKSSVHRIESSSFSTKDSMPESAGVPSYMAMTTAAKRKWKQMSSTSNASIKSDESCGFAKRIRRDNSSVKPMQENRLKVGYKRNTNKTNSNMLRKFRRNTSKENVQ
B4: Kif2C (kinesin-13) (protein, UniProt Q922S8 1-721)
chain: MESLHARLFPGLSINIQRSNGLIHPANISTVNVEKSCVSVEWIEGGTTKGKEIDIDDVAAINPELLQLLPLRPKDSLPLQENVTVPKQKRKSVNSKIPALKEGLRSRSTRMSTVSEVRIPAQENEMEVELPVPTNSRKQFAIPSHPRASCSTVTELPLLMVSEEAEEQAHSTRSTSSANPGNSVRRKSCIVKEMEKMKNKREEKRAQNSELRIKRAQEYDSSFPNWEFARMIKEFRVTMECSPLTVTDPIEEHRICVCVRKRPLNKQELAKKEIDVISVPSKCLLLVHEPKLKVDLTKYLENQAFCFDFAFDETASNEVVYRFTARPLVQTIFEGGKATCFAYGQTGSGKTHTMGGDLSGKSQNASKGIYAMASRDVFLLKNQPRYRNLNLEVYVTFFEIYNGKVFDLLNKKAKLRVLEDSRQQVQVVGLQEYLVTCADDVIKMINMGSACRTSGQTFANSNSSRSHACFQILLRTKGRLHGKFSLVDLAGNERGADTSSADRQTRMEGAEINKSLLALKECIRALGQNKAHTPFRESKLTQVLRDSFIGENSRTCMIAMISPGISSCEYTLNTLRYADRVKELSPHSGPSGEQPVQMETEVMEASSNGTSLTGNEEEELSSQMSSFNEAMTQIRELEERALEELREIIQQGPNWLELSEMTDQPDYDLETFVNKAESALTQQAKQAKHFSALREVIKALRLAMQLEEQASKQINSKKRHQ

Target: T1, GST-tagged EML1 N-ter (EML1 N-terminal domain, amino acids 1-174)
Test: affinity purification with mass spectrometry; purified GST-EML1 N-ter (4 μg) coupled to Glutathione-Agarose resin, incubated overnight with E13.5 mouse embryonic cortex extract; lysis buffer Tris HCl 50 mM, NaCl 150 mM, EDTA 1 mM pH 8, 1% NP-40; bound fractions by nano LC-MS/MS, label-free XIC quantification against GST control; two independent pull-downs; only the target purified

Molecule	binding
B1	binds
B2	binds
B3	binds
B4	binds

Target: T1, GST-tagged EML1 N-ter (EML1 N-terminal domain, amino acids 1-174)
Test: as above
Remark: another data set of the same source

Molecule	binding
polo kinase 1 (Plk1) (from UniProt Q07832 1-603)	binds
dynein heavy chain 1 (Dync1h1) (from UniProt Q9JHU4 1-4644)	binds
Tpx2 (targeting protein for Xklp2) (from UniProt A2APB8 1-745)	binds
Clasp1 (from UniProt Q80TV8 1-1535)	binds
kinesin superfamily protein (Kif) 20b (from UniProt Q80WE4 1-1774)	binds
Kif10 (Cenp-E) (from UniProt Q6RT24 1-2474)	binds
Kif2B (kinesin-13) (from UniProt Q8C0N1 1-668)	binds
Eml1 (Echinoderm microtubule-associated protein like-1) (from UniProt Q05BC3 1-814)	binds
Kif2A (kinesin-13) (from UniProt P28740 1-705)	binds

From paper PMC5725533
